## Screening data, single-dose tests

By UniProt entry, the sequences of proteins in these tests, tags left out.
UniProt P9WFT3, whole entry: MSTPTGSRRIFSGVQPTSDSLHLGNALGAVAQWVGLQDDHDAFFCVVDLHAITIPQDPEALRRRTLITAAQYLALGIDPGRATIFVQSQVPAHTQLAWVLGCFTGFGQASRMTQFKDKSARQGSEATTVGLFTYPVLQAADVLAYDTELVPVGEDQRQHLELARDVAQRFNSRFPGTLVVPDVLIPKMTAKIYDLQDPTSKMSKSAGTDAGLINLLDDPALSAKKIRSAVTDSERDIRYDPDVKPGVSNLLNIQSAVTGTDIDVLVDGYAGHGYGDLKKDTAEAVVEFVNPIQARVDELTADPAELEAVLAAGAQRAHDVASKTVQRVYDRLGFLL
UniProt I6X8D2, whole entry: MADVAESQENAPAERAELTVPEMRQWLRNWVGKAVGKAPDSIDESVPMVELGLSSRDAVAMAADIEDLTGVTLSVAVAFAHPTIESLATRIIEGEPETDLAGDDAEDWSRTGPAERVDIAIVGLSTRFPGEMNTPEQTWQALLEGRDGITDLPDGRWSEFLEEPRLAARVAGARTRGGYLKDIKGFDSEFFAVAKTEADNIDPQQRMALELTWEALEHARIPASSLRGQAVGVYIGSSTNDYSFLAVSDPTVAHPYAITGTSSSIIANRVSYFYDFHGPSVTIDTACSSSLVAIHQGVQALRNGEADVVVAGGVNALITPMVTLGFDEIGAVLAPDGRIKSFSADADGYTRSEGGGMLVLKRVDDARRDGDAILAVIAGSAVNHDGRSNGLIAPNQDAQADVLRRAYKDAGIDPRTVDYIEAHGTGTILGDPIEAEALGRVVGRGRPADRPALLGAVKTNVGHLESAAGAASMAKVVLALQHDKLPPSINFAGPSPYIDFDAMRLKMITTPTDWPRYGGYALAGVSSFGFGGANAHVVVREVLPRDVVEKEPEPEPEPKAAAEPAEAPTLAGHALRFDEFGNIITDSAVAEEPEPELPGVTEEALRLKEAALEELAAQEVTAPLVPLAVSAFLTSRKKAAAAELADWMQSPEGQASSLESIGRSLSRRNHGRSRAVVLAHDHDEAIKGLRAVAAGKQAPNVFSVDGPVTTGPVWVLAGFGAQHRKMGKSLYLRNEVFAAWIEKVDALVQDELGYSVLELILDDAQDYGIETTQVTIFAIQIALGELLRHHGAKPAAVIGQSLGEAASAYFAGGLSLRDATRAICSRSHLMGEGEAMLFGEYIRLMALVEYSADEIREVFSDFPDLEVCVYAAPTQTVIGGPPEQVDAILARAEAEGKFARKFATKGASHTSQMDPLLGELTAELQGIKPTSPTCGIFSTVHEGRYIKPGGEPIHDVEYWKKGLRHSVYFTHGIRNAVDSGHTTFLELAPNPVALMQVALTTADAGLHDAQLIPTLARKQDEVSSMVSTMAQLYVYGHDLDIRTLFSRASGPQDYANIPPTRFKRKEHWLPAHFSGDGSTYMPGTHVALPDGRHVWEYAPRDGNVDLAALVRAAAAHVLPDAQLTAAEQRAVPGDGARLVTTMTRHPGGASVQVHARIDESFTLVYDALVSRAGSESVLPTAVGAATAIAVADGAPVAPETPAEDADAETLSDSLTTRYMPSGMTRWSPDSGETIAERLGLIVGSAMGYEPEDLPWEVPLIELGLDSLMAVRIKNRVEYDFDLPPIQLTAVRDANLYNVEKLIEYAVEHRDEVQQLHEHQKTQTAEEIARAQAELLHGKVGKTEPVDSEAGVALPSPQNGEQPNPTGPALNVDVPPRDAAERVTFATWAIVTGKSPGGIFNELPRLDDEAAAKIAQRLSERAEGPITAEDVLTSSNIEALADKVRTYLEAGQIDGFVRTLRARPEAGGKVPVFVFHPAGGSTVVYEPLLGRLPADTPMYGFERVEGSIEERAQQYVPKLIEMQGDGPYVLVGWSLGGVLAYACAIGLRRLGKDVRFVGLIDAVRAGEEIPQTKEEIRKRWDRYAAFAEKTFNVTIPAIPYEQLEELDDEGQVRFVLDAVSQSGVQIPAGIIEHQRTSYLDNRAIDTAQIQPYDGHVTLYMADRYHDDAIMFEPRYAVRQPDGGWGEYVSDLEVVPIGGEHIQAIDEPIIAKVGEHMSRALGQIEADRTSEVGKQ
UniProt P9WNZ1, whole entry: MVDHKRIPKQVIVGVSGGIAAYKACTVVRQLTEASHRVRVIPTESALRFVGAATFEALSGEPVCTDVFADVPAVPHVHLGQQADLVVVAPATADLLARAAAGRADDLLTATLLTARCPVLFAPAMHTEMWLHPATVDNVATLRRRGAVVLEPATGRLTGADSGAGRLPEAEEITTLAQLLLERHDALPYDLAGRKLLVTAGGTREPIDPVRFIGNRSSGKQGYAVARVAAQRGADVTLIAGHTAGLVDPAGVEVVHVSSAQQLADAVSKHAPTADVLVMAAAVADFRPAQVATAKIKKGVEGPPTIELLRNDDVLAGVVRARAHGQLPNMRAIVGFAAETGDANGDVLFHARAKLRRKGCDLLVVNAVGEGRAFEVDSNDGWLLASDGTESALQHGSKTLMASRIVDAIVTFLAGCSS

A: 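Tryptophan-tRNA ligase, Mycobacterium tuberculosis (UniProt P9WFT3). Enzyme assay of tryptophanyl-tRNA synthetase; the read-out is not stated. Compounds at 10 µM. Higher most likely means stronger inhibition; the record gives no direction and few retests gave an IC50. Size under these conditions: about 65,000 compounds, about 64 of them at 50% or above in at least one test.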
B: 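Enzyme assay of the thioesterase domain of polyketide synthase 13; the read-out is not stated. Target: Polyketide synthase Pks13, Mycobacterium tuberculosis (UniProt I6X8D2). Concentration: 30 µM. Higher reads as stronger inhibition (inferred from which compounds were picked for retests). Size under these conditions: about 67,000 compounds, about 300 of them at 50% or above in at least one test.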
C: 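Enzyme assay of CoaBC with a phosphate dye (Biomol Green) read at 650 nm. Target: Coenzyme A biosynthesis protein CoaBC, Mycobacterium tuberculosis (UniProt P9WNZ1). Compounds at 30 µM. Direction is inferred from only a few compounds that gave an IC50; most scored high, so higher reads as stronger inhibition. Most strong results did not repeat in a second test. Of about 67,000 compounds tested this way, about 40 (0.06%) reached 50% or more in at least one test.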

Results are given as percent effect. How 0% and 100% were set is not recorded. Most values in the screen are low, and negative values occur. This is an unselected part of the compounds tested.

* Cc1noc2nc3c(c(C(=O)/N=c4\[nH]ncs4)c12)CCC3 | A: 2.733%; B: -1.723%; C: -2.309%
* Cc1ccc(C2CSCCN2C(=O)c2ccnc(N(C)C)c2)o1 (stereo not shown) | A: -0.25%; B: -24.22%; C: 5.499%
* CCn1ncnc1C(C)NC(=O)COc1ccc(Cl)cc1Cl (stereo not shown) | A: -3.473%; B: -27.8%; C: 4.596%
* Nc1cc(CC2COc3ccccc3C2)ccn1 (stereo not shown) | A: -1.374%; B: 1.1%; C: -2.314%
* CCC(=O)N1CCN(C(=O)c2cn3ccsc3n2)[C@H]2CS(=O)(=O)C[C@H]21 | A: 4.388%; B: -15.81%; C: 0.4592%
* Cn1cc(CN2CCC(F)(F)C3(CCN(c4cccc(F)c4)C3)C2)cn1 (stereo not shown) | A: 31.21%; B: 8.909%; C: -2.24%
* Cc1[nH]ncc1CCCNC(=O)Nc1ccc(C#N)cc1 | A: 1.316%; B: -12.29%; C: -1.919%
* CC(C)NS(=O)(=O)c1cc(C(=O)O)cc(-c2ccc3c(c2)OCO3)c1 | A: -4.77%; B: -21.77%; C: 0.5141%
* O=C1NCC2(CCCN(C(=O)c3c[nH]nc3C3CCCCC3)C2)O1 (stereo not shown) | A: -0.08157%; B: -5.55%; C: 13.65%
* CN1CCOC(CN(C(=O)COc2ccccc2)c2nccs2)C1 (stereo not shown) | A: -6.908%; B: -6.087%; C: 3.07%
* CNc1cccc(C2CCCN(C(=O)c3cscn3)C2)n1 (stereo not shown) | B: 2.299%; C: 4.843%
* Cc1nc(S(=O)(=O)N2CCC3(CCCCC3)C2)cn1C | A: 0.7843%; B: -26.72%; C: 15.05%
* CN(C)C1CCN(C(=O)c2ccc(Cn3ccccc3=O)o2)CC1 | A: -0.8746%; B: -4.688%; C: 5.396%
* CC(=O)NCCC(=O)N(C/C=C/c1ccccc1)CCO | A: -3.329%; B: -6.315%; C: -2.857%
* CCc1ncc2c(n1)CN(CC1CCCCO1)CC2 (stereo not shown) | A: 9.236%; B: 78.13%; C: 14.47%
* CC(C)c1noc(C(C)N2CCN(Cc3cccnc3)CC2)n1 (stereo not shown) | A: 1.002%; B: -11.18%; C: 2.738%
* CCn1cc(NC(=O)C2CCN(CC(=O)NCC(C)C)CC2)cn1 | A: -1.981%; B: 15.7%; C: -0.6386%
* Cc1noc2ncc(C(=O)N3CCCC(n4ccnc4C)C3)cc12 (stereo not shown) | A: -0.7323%; B: -23.15%; C: 15.33%
* NC(=O)CCN(CC(=O)NCc1cccs1)c1ccc(F)cc1 | A: -2.09%; B: -13.97%; C: -3.038%
* N#Cc1c(F)cccc1N1CCN(C(=O)Nc2nncs2)CC1 | A: 1.039%; B: -0.8522%; C: -0.3817%
* Cc1cc(C(=O)NCCN2CCCCC2C)nn1C(C)(C)C (stereo not shown) | A: -0.6121%; B: -3.975%; C: -3.639%
* Cc1nc(N)cc(N2CCCC(COc3cccc(F)c3)C2)n1 (stereo not shown) | A: -4.549%; B: -6.869%; C: -54.85%
* Cc1nnc(CN2CCN(CCOc3ccccc3C#N)CC2)n1C | A: 7.31%; B: -0.8812%; C: 9.182%
* CS(=O)(=O)N[C@@H]1CCN(Cc2cccnc2)[C@H]1Cc1ccccc1 | A: 0.7407%; B: -11.94%; C: 3.046%
* CC(C)C(=O)NCCNC(=O)C(C)OCC(F)(F)F (stereo not shown) | A: -2.547%; B: -34.3%; C: 2.195%
* CCn1ncc2c1C(COC)CN(S(=O)(=O)C1CC1)C2 (stereo not shown) | A: -1.297%; C: 11.2%
* NC(=O)C1Cn2ccnc2C2(CCN(C(=O)c3ccncc3)CC2)O1 (stereo not shown) | B: 2.34%; C: 0%
* CN1CCOC(C)(C(=O)N2CCN(C3CCCC3)CC2)C1 (stereo not shown) | A: -3.608%; B: 5.523%; C: 0.8653%

3 of the entries, repeated:

For O=C1NCC2(CCCN(C(=O)c3c[nH]nc3C3CCCCC3)C2)O1 (stereo not shown) the result was A: -0.08157%; B: -5.55%; C: 13.65%.
For Cc1[nH]ncc1CCCNC(=O)Nc1ccc(C#N)cc1 the result was A: 1.316%; B: -12.29%; C: -1.919%.
For CNc1cccc(C2CCCN(C(=O)c3cscn3)C2)n1 (stereo not shown) the result was B: 2.299%; C: 4.843%.

The values are deposited in ChEMBL (CHEMBL3988442, “University of Dundee, Small-Polar-MMV Screening Library” (2021)).